Results deposited as PubChem BioAssay AID1259405 (NCATS, 2018).
The deposit covers about 50,000 reagents; this is a random part of them. Over the whole deposit, about 4,000 (8%) were called active. 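Mouse siRNA library applied to hamster cells; one well for each siRNA.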 Unmarked entries are inactive. Reagents against one gene are numbered here.

Test: 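Silenced genes that increase secreted GFP made by CHO cells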 (primary screen)
Cell system: Chinese hamster CHO-K1 ovary cells with stable secreted eGFP expression
Knock-down reagent: single siRNA against mouse genes, 0.8 pmol siRNA per well (2 µl of 400 nM stock)
Time to read-out: 3 days
Detection: 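Percent of the per-plate non-targeting control median for intracellular GFP per well by laser scanning cytometry and for cell viability by ATP luminescence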
Scale: GFP, % of control: higher = more GFP per well, higher productivity; viability (ATP), % of control: higher = more viable cells (more ATP)
Call rule: 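a knock-down is called active if GFP reaches 120% or more of non-targeting control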

Gene	reagent no.	GFP, % of control	viability (ATP), % of control
Mmp1b	1	42.8	34.2
Mmp1b	2	91.1	99.9
Mmp1b	3	73.4	73.3
Rbm28	1	107	78.4
Rbm28	2	90.4	87.6
Eif3a	1	76.7	91.9
Eif3a	2	28.3	11.6
Eif3a	3	129 (active)	84.8
Olfr426	1	52	53.6
Olfr426	2	79.4	92.5
Olfr426	3	49.7	69.5
Gpr150	1	39.6	59.1
Gpr150	2	74.1	80.3
Gpr150	3	84.5	81
Col10a1	1	81.7	76.3
Col10a1	2	113	77.6
Svil	1	66.3	62.2
Svil	2	45.7	55
Svil	3	69.5	77.1
Alyreffm1	1	79.1	85.1
Alyreffm1	2	71.9	62.2
Alyreffm1	3	83.3	93.5

Limited to “GFP, % of control”, for 3 of the entries above:
Eif3a #1: 76.7
Eif3a #2: 28.3
Eif3a #3: 129 (active)

The listing continues.
Gene	reagent no.	GFP, % of control	viability (ATP), % of control
Arrdc1	1	52.5	54
Arrdc1	2	76.1	78.5
Arrdc1	3	120	116
Nudt2	1	64.3	62.8
Nudt2	2	24.4	45.5
Nudt2	3	108	55.6
Cstad	1	79.3	67.8
Cstad	2	111	94.7
Cstad	3	103	112
Nup43	1	21.1	20.7
Nup43	2	71.7	76.6
Nup43	3	86.8	55.3
